# Experimental data: PubChem BioAssay AID1053208 (Peter MacCallum Cancer Centre, 2014)
# Assay: 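Genes whose silencing cuts survival of bone tumour cells only with doxorubicin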 (primary screen)
# System: mouse osteosarcoma cells, early-passage culture from an engineered mouse model of fibroblastic bone tumour
# Reagent: siRNA pool against mouse genes, 40 nM
# Timing: about 120 h (48 h before drug, then 72 h with drug)
# Treatment: doxorubicin 100 nM for 72 h, roughly 30-40% inhibitory dose
# Measured: 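Luminescent ATP signal taken as viability with or without 100 nM doxorubicin for 72 h; mean of two wells set against non-targeting siRNA and turned into robust z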
# Reading the numbers: viability z-score with doxorubicin and doxorubicin viability vs non-targeting: higher = more viable cells under doxorubicin; viability z-score without drug: higher = more viable cells with knock-down alone; z-score of drug to no-drug ratio: higher = less drug sensitisation by knock-down
# Rule for the call: 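a pool counts as active when its viability z-score with doxorubicin is -2 or below and its z-score without drug lies between -2 and 2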
# The deposit covers about 17,000 reagents; shown is a part drawn at random. 788 of them (4.7%) count as active. 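Calls rest on z-score classes alone; an extra cut-off of viability at most 70% of control was not applied to them.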 Entries without a mark were called inactive.
target gene,combined z-score class,viability z-score with doxorubicin,viability z-score without drug,z-score of drug to no-drug ratio,doxorubicin viability vs non-targeting
Pon2 (paraoxonase 2),no change with or without drug,0.79,0.51,0.56,1.01
"Ssr1 (signal sequence receptor, alpha)",no change with or without drug,-0.45,-1.01,0.34,0.9
Cetn2 (centrin 2),no change with or without drug,-1.57,0.17,-1.69,0.8
Stat4 (signal transducer and activator of transcription 4),no change with or without drug,-0.45,0.34,-0.56,0.9
Schip1 (schwannomin interacting protein 1),no change with or without drug,-0.11,1.52,-1.01,0.93
Tm9sf4 (transmembrane 9 superfamily member 4),no change with or without drug,0.34,-0.17,0.56,0.97
Patl1 (protein associated with topoisomerase II homolog 1 (yeast)),no change with or without drug,0,0.34,-0.11,0.94
Trpc7,no change with or without drug,-1.35,-1.18,-0.56,0.82
Gpm6b (glycoprotein m6b),no change with or without drug,0.22,0.34,0.11,0.96
Irgm1 (immunity-related GTPase family M member 1),no change with or without drug,-1.35,0.51,-1.57,0.82
"Gng7 (guanine nucleotide binding protein (G protein), gamma 7)",no change with or without drug,0.9,-1.18,2.02,1.02
Fibcd1 (fibrinogen C domain containing 1),no change with or without drug,-0.79,-0.17,-0.56,0.87
Zfp781a (zinc finger protein 781A),no change with or without drug,1.46,0.84,1.01,1.07
Ccl25 (C-C motif chemokine ligand 25),no change with or without drug,0,-0.17,0.22,0.94
Or5al6 (olfactory receptor family 5 subfamily AL member 6),no change with or without drug,-0.45,0.51,-0.67,0.9
Fcho1 (FCH domain only 1),no change with or without drug,0.67,0.84,0.22,1
Or5t15 (olfactory receptor family 5 subfamily T member 15),low cell count with doxorubicin only (active),-2.47,0.51,-2.81,0.72
"V1rd18 (vomeronasal 1 receptor, D18)",no change with or without drug,-1.35,-1.85,0,0.82
Mtmr9 (myotubularin related protein 9),high cell count with doxorubicin only,2.25,-0.67,3.04,1.14
Slc60a2a,no change with or without drug,0.11,1.52,-0.79,0.95
Cel (carboxyl ester lipase),no change with or without drug,0.79,0.84,0.34,1.01
Sox2 (SRY (sex determining region Y)-box 2),no change with or without drug,0.34,-0.51,0.79,0.97
Zfp260 (zinc finger protein 260),no change with or without drug,1.35,-0.17,1.69,1.06
"C1ra (complement component 1, r subcomponent A)",no change with or without drug,0.67,0.34,0.56,1
Spef1 (sperm flagellar 1),no change with or without drug,1.8,-0.17,2.14,1.1
Tmem59l (transmembrane protein 59-like),no change with or without drug,-0.22,0.51,-0.45,0.92
Or10j7 (olfactory receptor family 10 subfamily J member 7),low cell count without drug only,-1.69,-2.19,-0.22,0.79
Polr3k (polymerase (RNA) III (DNA directed) polypeptide K),no change with or without drug,-0.45,0.34,-0.56,0.9
"Cryga (crystallin, gamma A)",no change with or without drug,-0.22,0.51,-0.45,0.92
Pcdhb3 (protocadherin beta 3),high cell count without drug only,1.12,2.53,-0.34,1.04
"Mettl4 (methyltransferase 4, N6-adenosine)",low cell count with doxorubicin only (active),-2.7,-0.51,-2.47,0.7
Jak1 (Janus kinase 1),no change with or without drug,0,-1.18,1.01,0.94
Or5b99 (olfactory receptor family 5 subfamily B member 99),no change with or without drug,-1.12,-0.84,-0.56,0.84
Mmp8 (matrix metallopeptidase 8),no change with or without drug,1.35,1.52,0.45,1.06
Disc1 (disrupted in schizophrenia 1),no change with or without drug,-1.8,-0.84,-1.24,0.78
Eif2ak3 (eukaryotic translation initiation factor 2 alpha kinase 3),no change with or without drug,0.22,-0.84,1.01,0.96
Vmn1r208 (vomeronasal 1 receptor 208),no change with or without drug,0.45,-1.18,1.46,0.98
"Zfpm2 (zinc finger protein, multitype 2)",high cell count without drug only,1.46,2.87,-0.22,1.07
"Il20ra (interleukin 20 receptor, alpha)",no change with or without drug,0.9,1.35,0.11,1.02
Gm2a (GM2 ganglioside activator protein),no change with or without drug,0.45,-0.34,0.79,0.98
Msc (musculin),no change with or without drug,0.45,-0.67,1.12,0.98
Rpl36al (ribosomal protein L36A-like),no change with or without drug,-0.9,-1.18,0,0.86
"Ank1 (ankyrin 1, erythroid)",no change with or without drug,0.67,-0.17,0.9,1
Oxtr (oxytocin receptor),no change with or without drug,0.34,-0.51,0.79,0.97
Or4c109 (olfactory receptor family 4 subfamily C member 109),no change with or without drug,0.34,1.18,-0.34,0.97
Cpne5 (copine V),no change with or without drug,0.9,0.51,0.67,1.02
Trhr (thyrotropin releasing hormone receptor),no change with or without drug,-0.45,-0.17,-0.22,0.9
Zfp346 (zinc finger protein 346),no change with or without drug,0.45,1.18,-0.22,0.98
"Mpp1 (membrane protein, palmitoylated)",no change with or without drug,-0.67,-0.51,-0.22,0.88
Tex12 (testis expressed 12),no change with or without drug,-1.69,0.34,-1.91,0.79
